According to article PMC11665562:
These are yes or no findings as the source states them, for the method shown. In cells and extracts the contact can be indirect. Some entries that bind do so weakly or less than the wild type. Tags and fused reporters may be left off the sequences shown.

Amino acid sequences for entries named in this document (tags omitted). Residues count along the entry.
UniProt P40225, residues 22-353: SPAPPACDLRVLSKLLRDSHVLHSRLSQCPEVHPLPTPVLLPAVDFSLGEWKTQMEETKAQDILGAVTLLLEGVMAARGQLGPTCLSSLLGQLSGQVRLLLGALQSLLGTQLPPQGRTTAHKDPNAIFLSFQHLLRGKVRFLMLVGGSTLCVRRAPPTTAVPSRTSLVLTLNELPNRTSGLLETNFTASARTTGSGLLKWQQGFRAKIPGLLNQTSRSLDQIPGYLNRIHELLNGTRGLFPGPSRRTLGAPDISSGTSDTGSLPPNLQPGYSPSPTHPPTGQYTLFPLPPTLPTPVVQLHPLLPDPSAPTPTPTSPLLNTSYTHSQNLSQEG

Key:
[1] = molecular target: T1, MCFD2-FLAG (multiple coagulation factor deficiency 2) (UniProt Q8NI22); test: co-IP; MCFD2-FLAG overexpressed in HEK293T cells expressing TPO-EGFP, 48 hours after transfection; anti-FLAG M2 magnetic beads then anti-EGFP blot; also GFP-Trap magnetic agarose then anti-FLAG blot
T1 sequence: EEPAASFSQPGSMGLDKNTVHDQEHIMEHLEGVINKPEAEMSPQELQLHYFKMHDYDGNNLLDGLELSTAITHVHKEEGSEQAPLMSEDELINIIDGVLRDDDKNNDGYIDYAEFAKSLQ

[2] = molecular target: T2, FLAG-tagged LMAN1 (lectin mannose-binding 1) (UniProt P49257); test: co-IP; LMAN1-FLAG and TPO-myc coexpressed in HEK293T; LMAN1 precipitated with anti-FLAG M2 agarose beads; blot with anti-myc
T2 sequence: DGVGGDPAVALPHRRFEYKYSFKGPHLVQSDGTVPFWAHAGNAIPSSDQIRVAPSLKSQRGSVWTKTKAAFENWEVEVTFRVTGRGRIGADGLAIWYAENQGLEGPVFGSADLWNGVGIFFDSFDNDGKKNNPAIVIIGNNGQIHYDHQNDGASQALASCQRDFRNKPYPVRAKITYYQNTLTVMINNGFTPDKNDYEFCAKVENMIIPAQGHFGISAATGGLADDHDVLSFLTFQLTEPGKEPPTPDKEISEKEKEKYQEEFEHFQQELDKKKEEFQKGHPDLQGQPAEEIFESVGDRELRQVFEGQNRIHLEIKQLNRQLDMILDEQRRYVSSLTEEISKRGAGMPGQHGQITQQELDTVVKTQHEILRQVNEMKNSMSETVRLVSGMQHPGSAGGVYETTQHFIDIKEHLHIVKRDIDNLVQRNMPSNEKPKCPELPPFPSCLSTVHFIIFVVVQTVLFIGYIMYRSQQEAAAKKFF

binding [1]	binding [2]	Substance
no binding		TPO fused to EGFP (from UniProt P40225 22-353)
	binds	myc-tagged thrombopoietin (TPO) (from UniProt P40225 22-353)
